Assay results published in US4554367A, “Phosphonium organohalogenostannates-IV” (priority 1982, dated 1985).
Read-outs that look alike come from different tables or passages of the source. For at least one compound, name, drawing or mass did not settle the structure.

Test system: mixed bacteria culture
Type: cell-based
Parameters: key: +: growth, no destruction; (+): growth, little control (greater than 10 colonies), slight destruction; (-): slight growth (1-10 colonies); -: no growth, destruction
Conditions: 30° C.

SMILES | Destruction of a mixed bacteria culture in Tyrode's solution, Growth (10 mg/liter) | Destruction of a mixed bacteria culture in Tyrode's solution, Growth (30 mg/liter) | Destruction of a mixed bacteria culture in Tyrode's solution, Growth (60 mg/liter) | Destruction of a mixed bacteria culture in Tyrode's solution, Growth (100 mg/liter)
CCCCCCCCCCCCCC[P+](CCCC)(CCCC)CCCC.CCC[CH2][Sn-]([Cl])([Cl])([Cl])[Cl] [Example 24] | + | (+) (growth, little control (greater than 10 colonies), slight destruction) | - | -
CCCCCCCCCCCCCC[P+](CCCC)(CCCC)CCCC.CCCCCCCCCCCCCC[P+](CCCC)(CCCC)CCCC.CCC[CH2][Sn-2]([Cl])([Cl])([Cl])([Cl])[Cl] [Example 25] | + | - | - | -
